Values quoted from earlier work as cited in US7214771B2, “Nucleic acid and protein expression thereby and their involvement in stress” (University of Medicine & Dentistry of New Jersey, priority 1999, dated 2007).
At least one structure is not confirmed: it was looked up by name or label, or the drawing left a doubt.

Tested on: human ovarian cancer cells
Conditions: treated ovarian carcinoma cells compared to untreated cells; cited from earlier work

In the case of `C=C[C@@]1(C)CC(=O)[C@]2(O)[C@@]3(C)[C@@H](O)CCC(C)(C)[C@@H]3[C@H](O)[C@H](OC(C)=O)[C@@]2(C)O1` [forskolin], the “effect on cisplatin sensitivity” value is given as “increase in cisplatin sensitivity”.
